# Data as given in the supplement of paper PMC8728848.
# This is one part of the list.
# B1: Tim-4 (Mus musculus), Q6U7R4 (protein)
# chain: MSKGLLLLWLVTELWWLYLTPAASEDTIIGFLGQPVTLPCHYLSWSQSRNSMCWGKGSCPNSKCNAELLRTDGTRIISRKSTKYTLLGKVQFGEVSLTISNTNRGDSGVYCCRIEVPGWFNDVKKNVRLELRRATTTKKPTTTTRPTTTPYVTTTTPELLPTTVMTTSVLPTTTPPQTLATTAFSTAVTTCPSTTPGSFSQETTKGSAFTTESETLPASNHSQRSMMTISTDIAVLRPTGSNPGILPSTSQLTTQKTTLTTSESLQKTTKSHQINSRQTILIIACCVGFVLMVLLFLAFLLRGKVTGANCLQRHKRPDNTEDSDSVLNDMSHGRDDEDGIFTL
# Columns and labels:
# Assay in all cases: glycan array binding signal (z-score within array); higher = stronger binding
# Conditions in all cases: glycan notation: IUPAC condensed, linker removed
# [1] = target: Gal(b1-3)[Neu5Ac(a2-6)]GlcNAc(a1-4)Gal(b1-4)Glc
# In short: (§1)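 Columns mapping to the same glycan were averaged after glycan names were converted to IUPAC-condensed notation. The data come from 3228 arrays in the Consortium for Functional Glycomics database, limited to those with an available protein sequence. Binding is reported as a within-array Z-score averaged across arrays of one protein sequence and across linkers.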
# [2] = target: Gal(b1-3)[Neu5Ac(b2-6)]GlcNAc
# In short: as §1
# [3] = target: Gal(b1-4)GalNAc(a1-3)[Fuc(a1-2)]Gal(b1-4)GlcNAc
# In short: as §1
# [4] = target: Gal(b1-4)GalNAc(b1-3)[Fuc(a1-2)]Gal(b1-4)GlcNAc
# In short: as §1
# [5] = target: Gal(b1-4)Glc
# In short: as §1
# [6] = target: Gal(b1-4)Glc6S
# In short: as §1
# [7] = target: Gal(b1-4)GlcNAc
# In short: as §1
# [8] = target: Gal(b1-4)GlcNAc(b1-2)Man(a1-3)[Gal(b1-4)GlcNAc(b1-2)Man(a1-6)]Man(b1-4)GlcNAc(b1-4)GlcNAc
# In short: as §1
# [9] = target: Gal(b1-4)GlcNAc(b1-3)Gal(b1-3)GlcNAc
# In short: as §1
# [10] = target: Gal(b1-4)GlcNAc(b1-3)Gal(b1-4)Glc
# In short: as §1
# [11] = target: Gal(b1-4)GlcNAc(b1-3)Gal(b1-4)GlcNAc
# In short: as §1
# [12] = target: Gal(b1-4)GlcNAc(b1-3)Gal(b1-4)GlcNAc(b1-3)Gal(b1-4)GlcNAc
# In short: as §1
# [13] = target: Gal(b1-4)GlcNAc(b1-3)Gal(b1-4)[Fuc(a1-3)]GlcNAc(b1-3)Gal(b1-4)[Fuc(a1-3)]GlcNAc
# In short: as §1
# [14] = target: Gal(b1-4)GlcNAc(b1-3)GalNAc
# In short: as §1
# [15] = target: Gal(b1-4)GlcNAc(b1-3)[Gal(b1-4)GlcNAc(b1-6)]GalNAc
# In short: as §1
# [16] = target: Gal(b1-4)GlcNAc(b1-6)GalNAc
# In short: as §1
# [17] = target: Gal(b1-4)GlcNAc(b1-6)[Gal(b1-3)]GalNAc
# In short: as §1
# [18] = target: Gal(b1-4)GlcNAc(b1-6)[Gal(b1-3)]GlcNAc
# In short: as §1
# [19] = target: Gal3S(b1-3)GalNAc
# In short: as §1
# [20] = target: Gal3S(b1-3)GlcNAc
# In short: as §1
# [21] = target: Gal3S(b1-3)[Fuc(a1-4)]GlcNAc
# In short: as §1
# [22] = target: Gal3S(b1-4)Glc
# In short: as §1
# [23] = target: Gal3S(b1-4)Glc6S
# In short: as §1
# [24] = target: Gal3S(b1-4)GlcNAc
# In short: as §1
# [25] = target: Gal3S(b1-4)GlcNAc6S
# In short: as §1
# [26] = target: Gal3S6S(b1-4)GlcNAc
# In short: as §1
# [27] = target: Gal3S6S(b1-4)GlcNAc6S
# In short: as §1
# [28] = target: Gal4S(b1-4)GlcNAc
# In short: as §1
# [29] = target: Gal4S6S(b1-4)GlcNAc
# In short: as §1
# [30] = target: Gal6S(b1-4)Glc
# In short: as §1
# [31] = target: Gal6S(b1-4)Glc6S
# In short: as §1
# [32] = target: Gal6S(b1-4)GlcNAc
# In short: as §1
# [33] = target: GalNAc(a1-3)Gal
# In short: as §1
# [34] = target: GalNAc(a1-3)GalNAc
# In short: as §1
# [35] = target: GalNAc(b1-3)Gal(a1-4)Gal(b1-4)GlcNAc
# In short: as §1
# [36] = target: GalNAc(b1-4)GlcNAc
# In short: as §1
# [37] = target: Glc(a1-4)Glc
# In short: as §1
# [38] = target: Glc(a1-6)Glc(a1-6)Glc
# In short: as §1
# [39] = target: Glc(b1-4)Glc
# In short: as §1
# [40] = target: Glc(b1-6)Glc
# In short: as §1
# [41] = target: GlcA(b1-3)Gal
# In short: as §1
# [42] = target: GlcA(b1-6)Gal
# In short: as §1
# [43] = target: GlcNAc(a1-3)Gal(b1-4)GlcNAc
# In short: as §1
# [44] = target: GlcNAc(a1-6)Gal(b1-4)GlcNAc
# In short: as §1
# [45] = target: GlcNAc(b1-2)Gal(b1-3)GlcNAc
# In short: as §1
# [46] = target: GlcNAc(b1-2)Man(a1-3)[GlcNAc(b1-2)Man(a1-6)]Man(b1-4)GlcNAc(b1-4)GlcNAc
# In short: as §1
# [47] = target: GlcNAc(b1-3)Gal
# In short: as §1
# [48] = target: GlcNAc(b1-3)Gal(b1-3)GalNAc
# In short: as §1
# [49] = target: GlcNAc(b1-3)Gal(b1-4)Glc
# In short: as §1
# [50] = target: GlcNAc(b1-3)Gal(b1-4)GlcNAc
# In short: as §1
# [51] = target: GlcNAc(b1-3)Gal(b1-4)GlcNAc(b1-3)Gal(b1-4)GlcNAc
# In short: as §1
# [52] = target: GlcNAc(b1-3)GalNAc
# In short: as §1
# [53] = target: GlcNAc(b1-3)[GlcNAc(b1-4)][GlcNAc(b1-6)]GlcNAc
# In short: as §1
# [54] = target: GlcNAc(b1-3)[GlcNAc(b1-6)]Gal(b1-4)GlcNAc
# In short: as §1
# [55] = target: GlcNAc(b1-3)[GlcNAc(b1-6)]GlcNAc
# In short: as §1
# [56] = target: GlcNAc(b1-4)Gal(b1-4)GlcNAc
# In short: as §1
# [57] = target: GlcNAc(b1-4)GlcNAc(b1-4)GlcNAc
# In short: as §1
# [58] = target: GlcNAc(b1-4)GlcNAc(b1-4)GlcNAc(b1-4)GlcNAc(b1-4)GlcNAc
# In short: as §1
# [59] = target: GlcNAc(b1-4)GlcNAc(b1-4)GlcNAc(b1-4)GlcNAc(b1-4)GlcNAc(b1-4)GlcNAc
# In short: as §1
# [60] = target: GlcNAc(b1-4)[GlcNAc(b1-6)]GalNAc
# In short: as §1
# [61] = target: GlcNAc(b1-6)Gal(b1-4)GlcNAc
# In short: as §1
# [62] = target: GlcNAc(b1-6)GalNAc
# In short: as §1
# [63] = target: Kdn(a2-3)Gal(b1-3)GlcNAc
# In short: as §1
# [64] = target: Kdn(a2-3)Gal(b1-4)GlcNAc
# In short: as §1
# [65] = target: Man(a1-2)Man(a1-2)Man(a1-3)Man
# In short: as §1
# [66] = target: Man(a1-2)Man(a1-2)Man(a1-3)[Man(a1-2)Man(a1-3)[Man(a1-2)Man(a1-6)]Man(a1-6)]Man(b1-4)GlcNAc(b1-4)GlcNAc
# In short: as §1
# [67] = target: Man(a1-2)Man(a1-2)Man(a1-3)[Man(a1-2)Man(a1-6)[Man(a1-3)]Man(a1-6)]Man(b1-4)GlcNAc(b1-4)GlcNAc
# In short: as §1
# [68] = target: Man(a1-2)Man(a1-2)Man(a1-6)[Man(a1-3)]Man
# In short: as §1
# [69] = target: Man(a1-2)Man(a1-3)Man
# In short: as §1
# [70] = target: Man(a1-2)Man(a1-3)[Man(a1-2)Man(a1-6)]Man
# In short: as §1
# [71] = target: Man(a1-2)Man(a1-3)[Man(a1-3)[Man(a1-6)]Man(a1-6)]Man(b1-4)GlcNAc(b1-4)GlcNAc
# In short: as §1
# [72] = target: Man(a1-2)Man(a1-3)[Man(a1-6)]Man(a1-6)[Man(a1-2)Man(a1-3)]Man(b1-4)GlcNAc(b1-4)GlcNAc
# In short: as §1
# [73] = target: Man(a1-3)[Man(a1-6)]Man
# In short: as §1
# [74] = target: Man(a1-3)[Man(a1-6)]Man(a1-6)[Man(a1-3)]Man(b1-4)GlcNAc(b1-4)GlcNAc
# In short: as §1
# [75] = target: Man(a1-3)[Man(a1-6)]Man(b1-4)GlcNAc(b1-4)GlcNAc
# In short: as §1
binder,measurement,setting,value
B1,glycan array binding signal (z-score),[1],-0.258
same,glycan array binding signal (z-score),[2],0.234
same,glycan array binding signal (z-score),[3],-0.026
same,glycan array binding signal (z-score),[4],-0.661
same,glycan array binding signal (z-score),[5],-0.168
same,glycan array binding signal (z-score),[6],-0.179
same,glycan array binding signal (z-score),[7],-0.08
same,glycan array binding signal (z-score),[8],-0.033
same,glycan array binding signal (z-score),[9],-0.496
same,glycan array binding signal (z-score),[10],-0.207
same,glycan array binding signal (z-score),[11],-0.621
same,glycan array binding signal (z-score),[12],-0.396
same,glycan array binding signal (z-score),[13],-0.165
same,glycan array binding signal (z-score),[14],-0.078
same,glycan array binding signal (z-score),[15],-0.345
same,glycan array binding signal (z-score),[16],-0.533
same,glycan array binding signal (z-score),[17],0.469
same,glycan array binding signal (z-score),[18],0.12
same,glycan array binding signal (z-score),[19],2.34
same,glycan array binding signal (z-score),[20],-0.157
same,glycan array binding signal (z-score),[21],-0.171
same,glycan array binding signal (z-score),[22],1.05
same,glycan array binding signal (z-score),[23],1.82
same,glycan array binding signal (z-score),[24],0.069
same,glycan array binding signal (z-score),[25],0.378
same,glycan array binding signal (z-score),[26],1.9
same,glycan array binding signal (z-score),[27],0.91
same,glycan array binding signal (z-score),[28],-0.08
same,glycan array binding signal (z-score),[29],0.4
same,glycan array binding signal (z-score),[30],0.141
same,glycan array binding signal (z-score),[31],0.552
same,glycan array binding signal (z-score),[32],-0.607
same,glycan array binding signal (z-score),[33],-0.211
same,glycan array binding signal (z-score),[34],-0.157
same,glycan array binding signal (z-score),[35],-0.334
same,glycan array binding signal (z-score),[36],-0.684
same,glycan array binding signal (z-score),[37],0.547
same,glycan array binding signal (z-score),[38],-0.167
same,glycan array binding signal (z-score),[39],-0.259
same,glycan array binding signal (z-score),[40],0.159
same,glycan array binding signal (z-score),[41],0.947
same,glycan array binding signal (z-score),[42],0.986
same,glycan array binding signal (z-score),[43],-0.514
same,glycan array binding signal (z-score),[44],-0.527
same,glycan array binding signal (z-score),[45],-0.252
same,glycan array binding signal (z-score),[46],-0.164
same,glycan array binding signal (z-score),[47],-0.255
same,glycan array binding signal (z-score),[48],-0.141
same,glycan array binding signal (z-score),[49],-0.648
same,glycan array binding signal (z-score),[50],0.087
same,glycan array binding signal (z-score),[51],0.823
same,glycan array binding signal (z-score),[52],-0.087
same,glycan array binding signal (z-score),[53],1.75
same,glycan array binding signal (z-score),[54],-0.744
same,glycan array binding signal (z-score),[55],-0.736
same,glycan array binding signal (z-score),[56],-0.845
same,glycan array binding signal (z-score),[57],0.106
same,glycan array binding signal (z-score),[58],-0.305
same,glycan array binding signal (z-score),[59],-0.439
same,glycan array binding signal (z-score),[60],-0.554
same,glycan array binding signal (z-score),[61],0.626
same,glycan array binding signal (z-score),[62],-0.269
same,glycan array binding signal (z-score),[63],-0.265
same,glycan array binding signal (z-score),[64],0.306
same,glycan array binding signal (z-score),[65],0.264
same,glycan array binding signal (z-score),[66],0.032
same,glycan array binding signal (z-score),[67],-0.382
same,glycan array binding signal (z-score),[68],0.027
same,glycan array binding signal (z-score),[69],-0.066
same,glycan array binding signal (z-score),[70],-0.185
same,glycan array binding signal (z-score),[71],-0.346
same,glycan array binding signal (z-score),[72],-0.16
same,glycan array binding signal (z-score),[73],0.911
same,glycan array binding signal (z-score),[74],-0.096
same,glycan array binding signal (z-score),[75],-0.296

# No new results follow: entries from further up.
binder,measurement,setting,value
B1,glycan array binding signal (z-score),[19],2.34
same,glycan array binding signal (z-score),[20],-0.157
same,glycan array binding signal (z-score),[21],-0.171
